Experiment: Fluorometric analysis of flavins
Type: physicochemical
Conditions: fluorescence at pH 7.7 over pH 2.6

SMILES: Cc1cc2nc3c(=O)[nH]c(=O)nc-3n(C[C@H](O)[C@H](O)[C@H](O)COP(=O)(O)O)c2cc1C [Authentic FMN, flavin mononucleotide]
- Fbase /Facid: 1.38

SMILES: Cc1cc2nc3c(=O)[nH]c(=O)nc-3n(C[C@H](O)[C@H](O)[C@H](O)COP(=O)(O)OP(=O)(O)OC[C@H]3O[C@@H](n4cnc5c(N)ncnc54)[C@H](O)[C@@H]3O)c2cc1C [Authentic FAD, flavin adenine dinucleotide]
- Fbase /Facid: 0.23
